From publication PMC11925395 come the findings set out here.

Sequences of proteins named here, by UniProt entry; tags and fusion partners are left off.
UniProt Q96H55: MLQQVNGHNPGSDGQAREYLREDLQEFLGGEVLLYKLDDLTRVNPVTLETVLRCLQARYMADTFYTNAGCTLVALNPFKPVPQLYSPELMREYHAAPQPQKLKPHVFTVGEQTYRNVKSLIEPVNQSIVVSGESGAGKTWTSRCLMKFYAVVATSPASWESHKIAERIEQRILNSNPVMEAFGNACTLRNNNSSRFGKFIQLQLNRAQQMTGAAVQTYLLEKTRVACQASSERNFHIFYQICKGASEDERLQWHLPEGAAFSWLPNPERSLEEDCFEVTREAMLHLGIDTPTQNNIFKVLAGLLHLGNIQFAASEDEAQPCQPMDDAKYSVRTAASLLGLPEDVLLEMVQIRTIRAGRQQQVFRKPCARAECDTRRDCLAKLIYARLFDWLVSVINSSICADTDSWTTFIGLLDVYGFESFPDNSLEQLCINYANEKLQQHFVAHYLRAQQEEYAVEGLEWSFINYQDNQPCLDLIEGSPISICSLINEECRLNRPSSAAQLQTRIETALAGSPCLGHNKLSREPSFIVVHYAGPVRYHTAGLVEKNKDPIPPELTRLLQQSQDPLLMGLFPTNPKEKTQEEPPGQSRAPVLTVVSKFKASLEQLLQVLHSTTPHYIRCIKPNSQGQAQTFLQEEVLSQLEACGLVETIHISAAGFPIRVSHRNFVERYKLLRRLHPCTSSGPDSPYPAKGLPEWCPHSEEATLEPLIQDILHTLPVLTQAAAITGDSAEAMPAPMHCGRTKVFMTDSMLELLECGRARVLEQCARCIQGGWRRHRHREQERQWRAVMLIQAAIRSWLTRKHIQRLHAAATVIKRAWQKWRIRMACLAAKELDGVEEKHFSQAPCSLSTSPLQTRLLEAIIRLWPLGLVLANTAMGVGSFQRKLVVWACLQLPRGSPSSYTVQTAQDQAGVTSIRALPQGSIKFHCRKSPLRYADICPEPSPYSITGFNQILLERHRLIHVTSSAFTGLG
UniProt Q8IXI1: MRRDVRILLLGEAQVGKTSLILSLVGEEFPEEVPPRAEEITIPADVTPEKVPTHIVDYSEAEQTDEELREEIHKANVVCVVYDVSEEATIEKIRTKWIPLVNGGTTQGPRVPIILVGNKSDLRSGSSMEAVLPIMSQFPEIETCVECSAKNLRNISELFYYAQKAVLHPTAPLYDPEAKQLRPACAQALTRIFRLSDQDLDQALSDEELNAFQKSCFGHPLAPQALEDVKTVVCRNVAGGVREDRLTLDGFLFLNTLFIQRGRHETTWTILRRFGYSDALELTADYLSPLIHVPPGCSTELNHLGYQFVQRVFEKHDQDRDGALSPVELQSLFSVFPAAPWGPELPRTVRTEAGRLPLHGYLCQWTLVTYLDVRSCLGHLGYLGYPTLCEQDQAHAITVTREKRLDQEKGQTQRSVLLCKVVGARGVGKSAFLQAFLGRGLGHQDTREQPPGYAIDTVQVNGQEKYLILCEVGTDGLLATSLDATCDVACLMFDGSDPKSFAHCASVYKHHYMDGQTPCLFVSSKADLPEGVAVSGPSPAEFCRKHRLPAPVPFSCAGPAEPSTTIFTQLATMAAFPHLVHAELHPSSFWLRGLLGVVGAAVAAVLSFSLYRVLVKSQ

The target of experiment [1] is Myo19–FLAG (UniProt Q96H55). The experiment can be described thus: co-IP; anti-FLAG agarose affinity purification from lysates of cells stably expressing Myo19–FLAG (HeLa) or Mtx3–FLAG (Mtx3 KO cells); lysis buffer 150 mM NaCl, 20 mM HEPES pH 7.4, 2 mM MgCl2, 1 mM EGTA, 0.5% Triton X-100, 2 mM ATP; 2 h at 4°C; eluted with FLAG peptide; immunoblot.
The target in experiment [2] is Halo–Miro2 (aa 1–592)–Bcl-xL (UniProt Q8IXI1). The experiment can be described thus: co-IP; Halo-Trap agarose pull-down from lysates of Miro DKO cells stably expressing Halo-tagged Miro constructs; inputs and eluates analysed by western blot. For orientation: Immunoblotting shows a protein as a band on a membrane.
The target in another experiment is T1, Halo–Miro1–VAMP1B tail (UniProt Q8IXI2).
T1 sequence: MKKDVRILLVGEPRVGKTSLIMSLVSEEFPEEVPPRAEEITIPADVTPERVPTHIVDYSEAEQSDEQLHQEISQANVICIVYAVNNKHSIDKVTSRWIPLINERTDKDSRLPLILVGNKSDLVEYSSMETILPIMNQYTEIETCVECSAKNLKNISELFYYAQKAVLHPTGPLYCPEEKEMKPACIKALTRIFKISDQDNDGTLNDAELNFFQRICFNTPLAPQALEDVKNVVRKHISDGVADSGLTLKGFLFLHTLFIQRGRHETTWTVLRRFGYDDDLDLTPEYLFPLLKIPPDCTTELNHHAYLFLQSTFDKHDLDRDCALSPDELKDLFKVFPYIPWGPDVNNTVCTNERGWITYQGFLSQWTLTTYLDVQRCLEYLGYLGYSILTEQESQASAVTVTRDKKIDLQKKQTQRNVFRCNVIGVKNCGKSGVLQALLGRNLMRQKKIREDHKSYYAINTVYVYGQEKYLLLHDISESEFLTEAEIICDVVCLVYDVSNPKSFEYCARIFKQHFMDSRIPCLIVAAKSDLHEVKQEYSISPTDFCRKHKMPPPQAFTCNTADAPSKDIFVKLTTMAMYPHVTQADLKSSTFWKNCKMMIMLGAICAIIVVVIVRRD
Described as above.

The target of the next experiment is T2, Mtx3–FLAG (human) (UniProt Q5HYI7).
T2 sequence: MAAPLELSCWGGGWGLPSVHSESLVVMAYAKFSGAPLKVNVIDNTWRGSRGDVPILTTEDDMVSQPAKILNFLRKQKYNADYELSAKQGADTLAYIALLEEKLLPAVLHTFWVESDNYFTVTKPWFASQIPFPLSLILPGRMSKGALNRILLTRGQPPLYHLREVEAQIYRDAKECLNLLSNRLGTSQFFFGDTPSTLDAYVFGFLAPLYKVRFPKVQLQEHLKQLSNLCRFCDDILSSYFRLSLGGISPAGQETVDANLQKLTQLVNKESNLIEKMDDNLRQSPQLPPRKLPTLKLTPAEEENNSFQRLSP
The experiment can be described thus: co-IP; anti-FLAG agarose affinity purification from lysates of cells stably expressing Myo19–FLAG (HeLa) or Mtx3–FLAG (Mtx3 KO cells); lysis buffer 150 mM NaCl, 20 mM HEPES pH 7.4, 2 mM MgCl2, 1 mM EGTA, 0.5% Triton X-100, 2 mM ATP; 2 h at 4°C; eluted with FLAG peptide; immunoblot.

The target in another experiment is Halo–Miro2 (human) (UniProt Q8IXI1). The experiment can be described thus: co-IP; Halo-Trap agarose pull-down from lysates of Miro DKO cells stably expressing Halo-tagged Miro constructs; inputs and eluates analysed by western blot.
A further experiment concerns the target Halo–Miro1 (human) (UniProt Q8IXI2). The experiment is described as above.
Experiment [3] concerns the target Myo19–FLAG (UniProt Q96H55). The experiment can be described thus: co-IP; anti-FLAG agarose affinity purification of Myo19–FLAG from Mtx3 KO cells (absence of Mtx3); eluted with FLAG peptide; immunoblot.

These are yes or no findings as the source states them, for the method shown. In cells and extracts the contact can be indirect. Some binding calls cover weakened binding; strength is not graded here. For some of these results: Sequences can lack the tags named with a protein.

B1: metaxin 3 (Mtx3), endogenous (protein, UniProt Q5HYI7 1-312)
chain: MAAPLELSCWGGGWGLPSVHSESLVVMAYAKFSGAPLKVNVIDNTWRGSRGDVPILTTEDDMVSQPAKILNFLRKQKYNADYELSAKQGADTLAYIALLEEKLLPAVLHTFWVESDNYFTVTKPWFASQIPFPLSLILPGRMSKGALNRILLTRGQPPLYHLREVEAQIYRDAKECLNLLSNRLGTSQFFFGDTPSTLDAYVFGFLAPLYKVRFPKVQLQEHLKQLSNLCRFCDDILSSYFRLSLGGISPAGQETVDANLQKLTQLVNKESNLIEKMDDNLRQSPQLPPRKLPTLKLTPAEEENNSFQRLSP
As to B1, the results for the binding result (in the experiment with Myo19–FLAG [1]; in experiment [2]; in the experiment with Halo–Miro1–VAMP1B tail) were “binds”, “no binding” and “no binding”, respectively.

B2: Sam50, endogenous (protein, UniProt Q9Y512 1-469)
chain: MGTVHARSLEPLPSSGPDFGGLGEEAEFVEVEPEAKQEILENKDVVVQHVHFDGLGRTKDDIIICEIGDVFKAKNLIEVMRKSHEAREKLLRLGIFRQVDVLIDTCQGDDALPNGLDVTFEVTELRRLTGSYNTMVGNNEGSMVLGLKLPNLLGRAEKVTFQFSYGTKETSYGLSFFKPRPGNFERNFSVNLYKVTGQFPWSSLRETDRGMSAEYSFPIWKTSHTVKWEGVWRELGCLSRTASFAVRKESGHSLKSSLSHAMVIDSRNSSILPRRGALLKVNQELAGYTGGDVSFIKEDFELQLNKQLIFDSVFSASFWGGMLVPIGDKPSSIADRFYLGGPTSIRGFSMHSIGPQSEGDYLGGEAYWAGGLHLYTPLPFRPGQGGFGELFRTHFFLNAGNLCNLNYGEGPKAHIRKLAECIRWSYGAGIVLRLGNIARLELNYCVPMGVQTGDRICDGVQFGAGIRFL
On to B2, for which the binding entry (with Myo19–FLAG [1]; in the experiment with Mtx3–FLAG (human); with Halo–Miro2 (human); in the experiment with Halo–Miro1 (human); in experiment [2]; with Halo–Miro1–VAMP1B tail) was “binds” in each case. Also, the binding entry in the experiment with Myo19–FLAG [3] is reported as “binds weakly”.
